Results are given in words; binding and its absence hold for the method and conditions named. Binding seen in cells or lysates may run through a third protein. Some binding calls cover weakened binding; strength is not graded here.
Target: influenza A/PR/8/34 (H1N1) virus nucleoprotein (NP) (influenza A/PR/8/34 (H1N1) virus) (UniProt P03466)
Test: co-IP

The chains behind the UniProt entries cited, without tags or fusion partners.
UniProt P03466: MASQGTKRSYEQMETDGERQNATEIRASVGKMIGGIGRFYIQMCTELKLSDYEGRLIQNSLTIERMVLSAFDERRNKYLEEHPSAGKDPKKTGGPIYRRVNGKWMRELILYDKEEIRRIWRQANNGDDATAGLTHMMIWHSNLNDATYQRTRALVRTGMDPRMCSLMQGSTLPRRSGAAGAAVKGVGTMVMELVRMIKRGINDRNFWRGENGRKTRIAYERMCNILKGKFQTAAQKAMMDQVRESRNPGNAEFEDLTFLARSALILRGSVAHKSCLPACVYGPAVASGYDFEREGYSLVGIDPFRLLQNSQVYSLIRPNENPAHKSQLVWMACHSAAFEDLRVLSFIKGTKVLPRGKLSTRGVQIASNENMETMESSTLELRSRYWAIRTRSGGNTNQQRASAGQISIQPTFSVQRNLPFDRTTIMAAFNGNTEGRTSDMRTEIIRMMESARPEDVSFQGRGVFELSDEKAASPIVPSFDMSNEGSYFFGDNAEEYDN
UniProt O14980: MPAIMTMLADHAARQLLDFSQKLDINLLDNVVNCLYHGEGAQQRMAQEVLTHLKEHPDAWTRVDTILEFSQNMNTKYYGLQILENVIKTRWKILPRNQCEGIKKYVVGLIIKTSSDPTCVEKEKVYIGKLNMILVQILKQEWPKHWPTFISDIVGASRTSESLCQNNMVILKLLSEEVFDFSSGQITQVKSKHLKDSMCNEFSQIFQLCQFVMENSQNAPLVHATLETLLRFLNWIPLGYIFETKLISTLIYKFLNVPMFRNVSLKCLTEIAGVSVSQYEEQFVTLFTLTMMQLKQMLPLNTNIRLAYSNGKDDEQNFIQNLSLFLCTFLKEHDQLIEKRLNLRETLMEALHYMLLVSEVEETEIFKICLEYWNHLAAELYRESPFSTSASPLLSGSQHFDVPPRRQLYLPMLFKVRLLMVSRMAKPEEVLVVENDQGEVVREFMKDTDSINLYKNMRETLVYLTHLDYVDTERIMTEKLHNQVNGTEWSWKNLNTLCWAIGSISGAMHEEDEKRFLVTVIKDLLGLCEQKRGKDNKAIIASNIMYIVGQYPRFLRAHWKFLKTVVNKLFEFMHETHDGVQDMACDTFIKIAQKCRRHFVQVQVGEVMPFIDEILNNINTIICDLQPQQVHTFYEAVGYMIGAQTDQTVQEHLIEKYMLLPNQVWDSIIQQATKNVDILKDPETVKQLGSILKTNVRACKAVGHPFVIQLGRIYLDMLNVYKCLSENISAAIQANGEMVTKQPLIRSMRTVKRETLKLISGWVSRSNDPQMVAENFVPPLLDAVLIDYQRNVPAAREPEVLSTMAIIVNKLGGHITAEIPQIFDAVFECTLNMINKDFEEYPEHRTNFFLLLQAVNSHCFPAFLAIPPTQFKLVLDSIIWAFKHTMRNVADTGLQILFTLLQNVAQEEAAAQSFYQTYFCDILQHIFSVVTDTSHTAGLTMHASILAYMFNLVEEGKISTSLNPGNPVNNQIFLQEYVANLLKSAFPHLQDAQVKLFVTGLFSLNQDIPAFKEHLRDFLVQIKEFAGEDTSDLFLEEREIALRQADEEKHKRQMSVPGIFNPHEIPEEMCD

CRM1 (from UniProt O14980 1-1071) was tested, and the binding was “binds”.

From paper PMC5824420
